The structures appear in SMILES notation. ± gives the standard deviation of the averaged measurements. The list shows a part of the results. Many values rest on one well or one pass, so single values are uncertain.

The assay relates to RAW 264.7 macrophages infected with S. aureus JE2-lux. Nature of the assay: host macrophage viability (CellTiter-Fluor) relative to DMSO vehicle; higher = more viable host cells. To be noted: 10 µM; treatment time 4 h; gentamicin 50 µg/ml.
Take `O=C(O)c1ccc(CN2C(=O)SC(Nc3ccccc3C(=O)O)C2=O)cc1` (stereo not given): the host macrophage viability was found to be 105%. With `CCOC(=O)C1CCN(C(=O)C2CCN(c3nccc4c(C)nn(CC)c34)CC2)CC1`, the host macrophage viability is 123%. On to `CCn1nc(C)c2ccnc(N3CCC(C(=O)Nc4ccc(Br)c(C)c4)CC3)c21`, for which the host macrophage viability stood at 107%.

As to `Cc1ccccc1-n1nc2c(c1NC(=O)c1cc3ccccc3oc1=O)CSC2`, the host macrophage viability was 112%.

`Cc1ccc(-c2c(C(F)(F)F)nn3c(O)cc(C)nc23)cc1`: the host macrophage viability was determined as 140%. In the case of `Fc1ccc(-n2c(SCc3cccnc3)nnc2-c2cccnc2)cc1`, the host macrophage viability worked out at 116%. As for `COc1cccc(/C=C2/SC(=S)N(CC(=O)Nc3ccccc3C(=O)O)C2=O)c1`, the host macrophage viability amounted to 93.5%. Regarding `O=C(CSCc1ccccc1)Nc1ccccc1F`, the host macrophage viability was 113%. The result for `CC(=O)c1cc(OC(=O)N2CCOCC2)ccc1OC(=O)N1CCOCC1` reads 115%; that for `O=C(NCc1cccnc1)c1cnn2c(C(F)(F)F)cc(-c3ccccc3)nc12`, 132%.

In the case of `CCOC(=O)c1ccc(Nc2nc(N)c(C(=O)c3cccc(Cl)c3)s2)cc1`, the host macrophage viability worked out at 102%. For `Clc1cccc2nc3n(c12)CCN(Cc1ccccc1)C3`, the host macrophage viability was 117%. Consider `CC1(C)COc2ccc(NC(=O)Cc3cccs3)cc2NC1=O`, for which the host macrophage viability came out at 112%. For the compound `Cn1c(=O)[nH]c(=O)c2cnc(-c3ccncc3)nc21`, the host macrophage viability was 91.4%.

As for `O=C(Cc1ccccc1)NN1C(=O)/C(=C/C=C/c2ccccc2)SC1=S`, the host macrophage viability came to 91.1 ± 8.4%. With `Nc1ncnc2c1c1nc3ccccc3nc1n2CCc1ccccc1`, the host macrophage viability worked out at 108%. `CS(=O)(=O)Nc1nc2ccc(NC(=O)c3cccnc3)cc2s1`: the host macrophage viability was 100%. For `CS(=O)CCNC(=O)Nc1cccc2ccccc12` (stereo not given), the host macrophage viability is 103%.

For `CCc1ccccc1NC(=O)NC1CC2CCCC(C1)N2Cc1ccccc1` (stereo not given), the host macrophage viability is 121%. `O=C(NC1CCCC1)c1cnc(N2CCCCC2)c2ccccc12`: the host macrophage viability worked out at 111%. Take `CCOC(=O)c1nn(-c2ccc(F)cc2)c(=O)cc1OCC(=O)NCCc1ccc(OC)c(OC)c1`: the host macrophage viability is 110%.

Take `Cc1cc2c(c(=O)n1CCO)C(c1cccc(F)c1)C(C#N)=C(N)O2` (stereo not given): the host macrophage viability worked out at 111%.

As for `Cn1c(=O)cc2c3c(c(Nc4ccccc4)ccc31)C(=O)c1ccccc1-2`, the host macrophage viability was determined as 123%. Turning to `COc1cc(/C=C2\SC(=S)N(c3ccc(O)cc3)C2=O)cc(OC)c1OC`, the host macrophage viability turned out to be 120%. Regarding `Cc1cccc(Cn2c(N(C)Cc3ccccc3)nc3c2c(=O)[nH]c(=O)n3C)c1`, the host macrophage viability worked out at 102 ± 2.9%.

As for `CCN1CCN(c2nn3c(NC(C)(C)C)c(-c4ccc(Cl)cc4)nc3s2)CC1`, the host macrophage viability amounted to 113%. Take `COC(=O)c1c(NC(=O)Nc2c(-c3cccnc3)[nH]c3ccc(F)cc23)sc2c1CCCC2`: the host macrophage viability was found to be 98.4%.

Consider `CCCNC(=O)Cn1nc(-c2ccc(C)cc2)c2cnc3ccc(CC)cc3c21`, for which the host macrophage viability is 106%. For the compound `COCCNc1c(-c2ccc(OC)c(O)c2)nc2sc3cc(Cl)ccc3n12`, the host macrophage viability is 123%. `O=C(c1ncoc1-c1ccc(F)cc1)N1CCC2(CC1)C(=O)NCN2c1ccccc1`: the host macrophage viability was determined as 106%. With `O=C(Nc1ccccc1)Nc1cccc(N2CCn3c(nc4cc(Cl)ccc43)C2)c1` the figure was 127%. With `O=C(CSc1ccc([N+](=O)[O-])cc1[N+](=O)[O-])Nc1cccc(C(F)(F)F)c1` the figure was 102%; with `COc1cc(Br)cc2c1Oc1nc(-c3ccccc3)nc(SCC(N)=O)c1C2`, 125%; with `Cc1sc(NC(=O)CN(Cc2ccc(F)cc2)C(=O)c2ccncc2)c(C(N)=O)c1C`, 122%. As for `CC(C(=O)N1CCCc2ccccc21)n1cnc2onc(-c3ccc(Cl)cc3)c2c1=O` (stereo not given), the host macrophage viability was found to be 104%. On to `CCN1CC2=C(OC(N)=C(C#N)C2c2ccc(F)cc2)/C(=C/c2ccc(F)cc2)C1` (stereo not given), for which the host macrophage viability came out at 116%. Take `O=C(NCCc1c[nH]c2ccccc12)C(=O)c1cn(CC(=O)N2CCCC2)c2ccccc12`: the host macrophage viability turned out to be 105%.

In the case of `Cc1cc(NC(=O)CN2CC(C)CC(C)C2)nc2c1c(=O)oc1ccccc12` (stereo not given), the host macrophage viability was determined as 126%. The result for `COc1cc(C(=O)NC(=S)Nc2cccc3c2C(=O)NC3=O)cc(OC)c1OC` reads 121 ± 14%; that for `CCc1nc2ccc(NC(=O)c3nc(-c4ccc(F)cc4)oc3C)cc2[nH]1`, 103%; that for `CCOC(=O)c1sc2nc(NC(=O)C3CCCCC3)sc2c1C`, 97.9%. In the case of `Cc1ccc2cc(CN(Cc3ccccc3)C(=O)c3cccnc3)c(Cl)nc2c1`, the host macrophage viability amounted to 104%. For `C=CCn1/c(=N/C(=O)c2nc3ccccc3s2)sc2cc(NC(C)=O)ccc21`, the host macrophage viability was 126%. Turning to `COc1ccc(N2CCN(c3cc(C)nc4nncn34)CC2)cc1`, the host macrophage viability amounted to 108%. The result for `COC(=O)c1cccc(NC(=O)N2CCC(c3nnc(C(=O)Nc4ccccc4F)s3)CC2)c1` reads 97.4%; that for `CCOC(=O)c1cc(C)nc2c1c(=O)n(Cc1cccc(C(F)(F)F)c1)c(=O)n2C`, 115%. In the case of `CCOc1ccc(CCNC(=O)COc2ncnc3oc(C)c(C)c23)cc1OCC`, the host macrophage viability was 146%. `Cc1sc2nc(C)n(C3CCN(C(=O)Cc4ccsc4)CC3)c(=O)c2c1C`: the host macrophage viability came to 117%.

On to `CCOc1ccc(Nc2c(CC)c(C)c(C#N)c3nc4ccccc4n23)cc1`, for which the host macrophage viability turned out to be 119%. Take `NC(=O)CSc1cn(Cc2ccc(Cl)cc2)c2ccccc12`: the host macrophage viability came out at 95.1%. Turning to `c1cncc(CSc2ncnc3c2sc2nc4ccccc4cc23)c1`, the host macrophage viability is 125%. For the compound `CCN1CCCC1CNCc1cc2c(C)cc(C)cc2n2c(=O)n(C)nc12` (stereo not given), the host macrophage viability turned out to be 127%. On to `O=C(Nc1nc2ccc3ccccc3c2s1)c1cccc(N2C(=O)CCC2=O)c1`, for which the host macrophage viability is 124%. Take `COc1cccc(/N=C2\NC(=O)/C(=C3/C(=O)Nc4ccccc43)S2)c1`: the host macrophage viability came to 96.2 ± 2.3%.

With `Cn1cnc2cc(-c3noc(CNC(=O)C(c4ccccc4)c4ccccc4)n3)ccc21`, the host macrophage viability turned out to be 105%. With `Cc1cc(NC(=O)CSc2c(C)[nH]c3ccccc23)no1` the figure was 132%. For the compound `O=C1CC(Nc2ccc(N3CCOCC3)cc2)C(=O)N1c1ccc(Cl)c(C(F)(F)F)c1` (stereo not given), the host macrophage viability was determined as 120%. Take `CCN(CC)CCNC(=O)c1cc2cc([NH+]([O-])O)ccc2oc1=O` (stereo not given): the host macrophage viability came out at 109%. `O=C(CC(=O)N/N=C1\C(=O)Nc2ccccc21)N/N=C1\C(=O)Nc2ccccc21`: the host macrophage viability is 91.7 ± 3.5%.

Turning to `Cc1ccc(Cl)cc1NC(=O)NCCCn1c(C(F)(F)F)nc2cccnc21`, the host macrophage viability was found to be 130%.

On to `Cc1nnc(NC(=O)CSc2nnc(CNC(=O)c3ccco3)o2)s1`, for which the host macrophage viability is 105%. For the compound `CCCN1CCN(C(=O)Cn2c(C)nc3onc(C)c3c2=O)CC1`, the host macrophage viability is 107%. As for `CCC(Sc1nncn1C)C(=O)Nc1nnc(-c2ccc(F)cc2)s1` (stereo not given), the host macrophage viability turned out to be 118 ± 20%. For the compound `CC1CC(C)CN(S(=O)(=O)c2ccc(C(=O)Nc3sccc3C(N)=O)cc2)C1` (stereo not given), the host macrophage viability came out at 121%. As to `CCC(=O)Nc1c(C(=O)OC)sc2ccccc12`, the host macrophage viability was determined as 112 ± 10%.

Consider `c1ccc(NCc2nnc3c(Nc4ccccc4)nc4ccccc4n23)cc1`, for which the host macrophage viability was determined as 105%. Regarding `Cc1nc2sc(C(c3ccco3)N3CC(C)CC(C)C3)c(O)n2n1` (stereo not given), the host macrophage viability is 107 ± 5.2%. In the case of `Cc1cc2cc(CCNC(=O)C34CC5CC(CC(C5)C3)C4)c(=O)[nH]c2cc1C`, the host macrophage viability came to 121%. Consider `Cc1ccc(CN2C(=O)/C(=C3/C(=O)Nc4ccccc43)SC2=S)cc1`, for which the host macrophage viability turned out to be 130%.

`Cc1cc(NC(=O)C(=O)NCC(c2ccc3c(c2)CCCN3C)N2CCCC2)c2ccccc2n1` (stereo not given): the host macrophage viability was 95.3%. Consider `COc1ccc(NC(=O)Cn2cc(C(=O)c3ccc(C)c(C)c3)c(=O)c3cc4c(cc32)OCO4)cc1`, for which the host macrophage viability amounted to 119%. As for `O=C(/C=C1\SC(=O)NC1=O)Nc1ncc(Cc2cccc(C(F)(F)F)c2)s1`, the host macrophage viability came to 104%. Regarding `CCOC(=O)c1ccc(NC(=O)CCN2C(=O)/C(=C/c3ccccc3OC)SC2=S)cc1`, the host macrophage viability stood at 99.4%. The result for `CCOC(=O)c1[nH]c2ccccc2c1NC(=O)c1ccc(N2C(=O)CCC2=O)cc1` reads 101%. For the compound `CCOC(=O)c1c(NC(=O)CCSc2nc3sc(C)c(C)c3c(=O)[nH]2)sc(C)c1C`, the host macrophage viability is 133%.

As to `Cc1cc(NS(=O)(=O)c2ccc3onc(C(=O)N4CCCC4)c3c2)ccc1Br`, the host macrophage viability came out at 83.3%. In the case of `NS(=O)(=O)c1ccc(O)c(N2C(=O)c3cccc4c(C(=O)c5ccccc5)ccc(c34)C2=O)c1`, the host macrophage viability was 115%. As to `O=C1NCCc2c(OCc3cccc(C(F)(F)F)c3)cccc21`, the host macrophage viability is 123%. `Cc1ccc(-c2noc3ncnc(N4CCC(C(=O)NCc5ccc6c(c5)OCO6)CC4)c23)cc1`: the host macrophage viability was found to be 107%. Regarding `O=C(CCC(=O)N1CCN(C(c2ccccc2)c2ccccc2)CC1)Nc1noc2ccccc12`, the host macrophage viability was determined as 121%. With `COc1ccc(-c2cc(C(=O)NC3CCCCC3C)n[nH]2)cc1S(=O)(=O)N(C)C` (stereo not given) the figure was 88.2%.

Consider `CC(=O)Nc1ccc(NC2=NC(=O)/C(=C\c3ccc(C)o3)S2)cc1`, for which the host macrophage viability was found to be 103%. In the case of `CCN1CCN(c2ccc(C(=O)OC)cc2NC(=O)c2cccnc2)CC1`, the host macrophage viability was 88.5%.

For the compound `COc1cc(NC(=O)N2CCn3cccc3C2c2ccc(F)c(F)c2)cc(OC)c1OC` (stereo not given), the host macrophage viability was determined as 121%.

With `CCNc1nc(NCC)nc(Sc2ccc([N+](=O)[O-])cc2[N+](=O)[O-])n1`, the host macrophage viability turned out to be 84%. With `Cc1oc2ncnc(N3CCCC(C(=O)N4CCN(C5CCCCC5)CC4)C3)c2c1C` (stereo not given) the figure was 127%; with `O=C(NCc1ccccc1)N1CCn2cccc2C1c1cccnc1` (stereo not given), 124%; with `O=C1Nc2ccccc2Oc2ccc(NS(=O)(=O)Cc3ccc(F)cc3)cc21`, 115%. For the compound `CCc1c(C#N)c(SCC(=O)c2cc3ccccc3oc2=O)nc2c1CCC2`, the host macrophage viability was found to be 131%. For `Cc1ccc2cc3c(nc2c1)sc1c(SCC(=O)Nc2ccccc2F)ncnc13`, the host macrophage viability was determined as 106%. `Cc1cccc(NC(=O)NC2(C(=O)NCc3ccco3)CCCCC2)c1`: the host macrophage viability was determined as 114%. `O=C(Nc1ncnc2sccc12)c1ccc(C(=O)c2ccccc2)cc1`: the host macrophage viability was determined as 104%. Consider `COc1ccc(CCNC(=O)COc2cccc3c2CCN(Cc2cccnc2)C3=O)cc1OC`, for which the host macrophage viability amounted to 136%.

In the case of `O=C(Cn1c2ccccc2n2c(=O)cc(-c3cccc(Cl)c3)nc12)Nc1nccs1`, the host macrophage viability worked out at 97.9%. On to `COc1cccc(-n2c(=O)c3sc4ccccc4c3n(CC(=O)NC3CCCCC3)c2=O)c1`, for which the host macrophage viability worked out at 107%. In the case of `O=C(COc1ncnc2ccccc12)Nc1cccc(C(=O)N2CCOCC2)c1`, the host macrophage viability was determined as 115%.

Regarding `COc1ccc(S(=O)(=O)NCC2COC3(CCCCC3)O2)cc1F` (stereo not given), the host macrophage viability came to 116%. Turning to `COc1ccc(C(=O)Nc2cc3c4c(c2)CC(=O)N4CCC3)c(OC)c1`, the host macrophage viability came to 125%. Take `COc1cccc(-n2c(N)cc(=O)nc2SCC(=O)N2CCN(c3ccccc3)CC2)c1`: the host macrophage viability amounted to 104%. With `O=C(O)CC1S/C(=N/c2ccccc2)N(c2ccccc2)C1=O` (stereo not given) the figure was 104%.

These data come from the supplement of paper PMC12578635.
